Data as given in the supplement of paper PMC3334620.
The full ranking holds about 33,000 sequences; the median of “E-score (-0.5 to 0.5)” is about -8e-05, and the highest 2% start at about 0.23. The list shows a part of the results.

Target: T1, Nrg2 (UniProt P38082)
T1 sequence: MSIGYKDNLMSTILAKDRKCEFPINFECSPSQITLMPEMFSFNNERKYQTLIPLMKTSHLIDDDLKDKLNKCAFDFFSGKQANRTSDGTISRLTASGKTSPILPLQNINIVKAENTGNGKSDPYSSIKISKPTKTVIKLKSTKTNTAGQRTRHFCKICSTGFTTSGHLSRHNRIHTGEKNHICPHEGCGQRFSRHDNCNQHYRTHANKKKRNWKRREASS
Test: PBM E-score (8-mer binding enrichment) (E-score (-0.5 to 0.5)); higher = stronger / more preferred TF binding
Settings: protein concentration: 100 nM; construct: GST-full length
Summary of the method: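 E-scores (a modified Wilcoxon-Mann-Whitney statistic) were assigned by the Universal PBM Analysis Suite to every ungapped eight-base word pooled with its reverse complement. The input came from universal all-10-mer Agilent arrays made double-stranded by primer extension and probed with GST-tagged yeast transcription factors at about 100-200 nM. Fluorescent anti-GST detected bound protein, and masliner normalised the scans.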

Sequence	PBM E-score
TATTTCGA	0.183
GGTGAGTA	-0.041
AGCAGCGC	0.08
CAAAACCC	0.222
AGTAGCAA	0.102
CACTCATC	0.0506
CCAGCGTC	-0.143
AGACCCAA	-0.00312
CGCGCCAC	0.131
GTGCGAAA	-0.0208
GTGGAAAA	0.0167
AGACCACG	-0.159
AAACAAGA	0.0965
AGGACTTC	-0.139
GTCACTGA	0.0637
CATCTTCG	0.0326
ACATGCCT	-0.16
ATTTCACA	0.118
TATTGTCA	0.172
ATTCTGAG	-0.0119
ACCGCCGA	-0.0213
CTTACAAA	-0.053
CGCGATCC	0.13
GAGATCCA	0.117
GACAATGC	0.131

Sequence	PBM E-score
TAGTTATA	0.074
ACACGAAA	0.121
GTCAATTA	-0.0941
ACGGTGCG	0.0486
AGAGATTC	0.0502
GGCAACAA	0.105
AGATCTGG	-0.109
AATTCCGA	0.193
GTGGGCAA	-0.0781
AAGTCGCC	-0.161
CAGGCAAA	0.00804
ACCCCACG	-0.0135
ATCGGAAC	0.139
CCTGGACC	0.0897
GCGCTAAC	-0.0647
CCAGAGCG	-0.164
ACGTCTAC	-0.203
AAATCCCC	-0.0879
ATGCTCGC	0.0413
AGCCTGAA	-0.0391
CTAACTAA	-0.0143
AACTTGGC	-0.0216
ACCATTGG	0.0751
ACTCCCTC	-0.249
ACTGACGG	-0.161

An excerpt of these results, as a markdown table:

| Sequence | PBM E-score |
| --- | --- |
| AGTAGCAA | 0.102 |
| CGCGATCC | 0.13 |
| GGCAACAA | 0.105 |
| CCTGGACC | 0.0897 |
| AACTTGGC | -0.0216 |
| ACCATTGG | 0.0751 |

In a second layout: entries from further up.
GGTGAGTA
  PBM E-score = -0.041
AGCAGCGC
  PBM E-score = 0.08
CAAAACCC
  PBM E-score = 0.222
AGTAGCAA
  PBM E-score = 0.102

Next results

Sequence	PBM E-score
GACGCATA	0.124
ACACACTC	0.114
AACGCCTA	-0.0314
CATGAATA	-0.151
AAGTGTGG	-0.0298
CATCGACA	-0.0342
ATCACACA	0.171
ACCCCGAG	-0.0836
CGGGAACG	-0.128
GGAGCGGA	0.0266
AGTCCTCG	-0.0433
AGGCCTGC	-0.0378
ATAGTAAA	0.203
TGATCAAA	0.0524
CAACCCGG	-0.0791
GAAATAGC	0.0102
CTGCGGCA	-0.208
CGTTACCC	-0.108
CCAGTCAC	-0.262
AACCGCCA	-0.104
GTTTCAGA	-0.0172
GACGTACA	-0.0211
AGAGAGTC	-0.138
AGCGAGCC	-0.0381
ACCCAAGA	-0.0784

Sequence	PBM E-score
CCGTCGGC	-0.226
AAAATTGC	-0.0548
CAACTTGC	0.0266
GTGGGAGA	-0.161
CGACCGAG	0.0733
ATGGTTCC	0.0737
CAATGGTG	-0.125
CATCGAGA	0.0688
AAAATGTC	-0.0272
CGCGCACA	0.106
AGCTCTGG	-0.136
ATGCTAAC	-0.0282
ACTCCGAC	-0.0221
AGACCGCT	-0.155
CCACCTAA	-0.0686
CATAACAA	0.203
ACGGGTGG	0.00221
CTCAGAAG	-0.156
CGTTAGAA	-0.154
ACTTCCTA	0.0166
AGCGCGTC	-0.0322
ACACTAAA	0.271
GCAGCACC	-0.17
CTGGGTCC	-0.288
CCATGTCC	-0.092

Sequence	PBM E-score
CGAACGTA	-0.0451
GGCCGCAA	0.0227
AATGTCGT	0.033
ACGGACCC	0.081
AGAAAACT	-0.0407
GCGAACCC	0.167
ACGTAAAT	-0.131
AGAGACAC	-0.0137
CATATTGA	-0.0238
AGCCCGGA	-0.118
CATTGGAG	0.0158
CAAACGCA	-0.104
CGGTGCTA	-0.0189
CATCTAAC	-0.152
GACATCAC	-0.0431
CCCCTGCA	-0.00126
CAGTGGGC	-0.00236
CAATGGCC	-0.178
CGGGTGCA	-0.0669
GTAACTAA	0.0975
AATGACTC	-0.202
ACAAGAGA	0.24
AATGACAG	0.0722
GACTTGCC	-0.134
ATACATTC	-0.0371

Sequence	PBM E-score
CTAGGCAA	-0.162
CATCACGA	-0.199
CTCTGTCC	-0.0333
AACGTGGG	-0.202
CAATGTTC	0.00207
ATGCTCTG	-0.116
AGCATCCG	-0.129
CCTCTCGA	-0.179
ACGGCGCC	-0.0618
GGATTGTA	-0.0569
ACCTACGT	0.00416
CAACCCTG	0.252
CTACGAAG	-0.169
GGGACTTA	0.112
CATGCACA	0.143
GCGCATGA	-0.0314
ATCGCACA	0.022
CCTATTTC	0.173
CGTACTCC	-0.143
CCTGTATA	0.0265
ACATTAAA	0.143
ATTTGGAG	-0.0394
GAGACGTA	0.0534
TCTGAGCA	-0.0828
ACCCTATC	0.129

Sequence	PBM E-score
AAGCTTAG	0.107
CGACAGGA	0.0965
AGTCATAT	0.0126
ACCGATCG	-0.0446
GTCAGCCA	-0.107
AGTGCTAA	-0.0814
TACCTCCA	-0.0804
ACACTACC	-0.141
GCGCGGTA	0.271
AGGGATTG	0.118
CAACAAGC	0.0591
ACCGAAAA	0.161
ATATAGGC	0.118
GGGGCTAA	-0.0626
GGGTGCTA	-0.0127
AACCTTAA	0.293
GCAATTGC	0.0706
AAAGTCTC	-0.204
TGATTTAA	0.109
CCACGTGA	-0.0788
ACAGCGAG	-0.0664
CCAATAGA	-0.0435
AACCGTGC	0.0462
ACATTCTA	-0.0515
CGATACCA	0.124

Sequence	PBM E-score
GGGTATAA	0.0367
CGGTAGCC	-0.05
CTGACTAA	0.0258
GAAGAATC	-0.0943
CTGTATCA	-0.108
AGTGGGAA	-0.0158
ATTGTTGG	0.21
CAGTTCGA	0.0869
CACTCTGA	-0.182
CCGGGTAA	0.145
GACTACCA	-0.155
CGAGCCCC	-0.154
GAGGCTGC	-0.111
AGCACTAG	0.0493
CTGATATA	-0.0319
GCAGATAC	0.0184
GTTCATCA	0.113
ACGACTCT	0.0279
CGATCACC	0.0627
CTGCGAAA	-0.115
CTGTAGTA	0.245
AGCTGACT	0.12
CATCTGGA	0.0158
CCTTCGAG	-0.091
GATTTTTA	0.0399

Sequence	PBM E-score
CCGGCGTA	-0.102
GATAGCCC	-0.125
AACGTGCA	-0.0525
ACGCAACT	0.183
CTTGGATC	-0.0261
CGGTGGAA	-0.0997
AGGGAAAG	-0.0204
AACTTAAG	-0.0727
CAAGTCAG	-0.0172
GAAGATAA	0.125
GAACTGCC	0.0841
ATGGAGTC	-0.095
GACCGATA	0.0777
ATCTGCGA	0.0624
CCCGATCG	-0.026
AGGGAGGA	-0.202
ACTGTGGA	-0.109
GATCCGCC	0.0473
GTCGAGCA	-0.21
